The target of this experiment is C-terminally FLAG-tagged Zea (Lmo2686) overexpressed in L. monocytogenes (L. monocytogenes) (UniProt Q8Y3Z3). Description: pull-down; ZeaFLAG immunopurified from L. monocytogenes culture medium on M2 Flag magnetic beads, incubated overnight at 4°C with lysate of HEK293 cells stably expressing Strep-RIG-I; with or without RNaseA (100 μg/mL); eluted with 3xFlag peptide; immunoblot; only the target purified.

By UniProt entry, the sequences of proteins in these tests, tags left out. Where a name states a change or a piece, a line headed by the entry shows the natural chain unless it says otherwise.
UniProt Q8Y3Z3: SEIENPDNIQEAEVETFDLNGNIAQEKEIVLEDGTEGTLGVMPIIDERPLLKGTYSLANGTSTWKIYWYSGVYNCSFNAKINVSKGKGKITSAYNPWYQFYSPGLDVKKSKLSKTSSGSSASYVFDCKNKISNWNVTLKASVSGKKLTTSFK
UniProt O95786: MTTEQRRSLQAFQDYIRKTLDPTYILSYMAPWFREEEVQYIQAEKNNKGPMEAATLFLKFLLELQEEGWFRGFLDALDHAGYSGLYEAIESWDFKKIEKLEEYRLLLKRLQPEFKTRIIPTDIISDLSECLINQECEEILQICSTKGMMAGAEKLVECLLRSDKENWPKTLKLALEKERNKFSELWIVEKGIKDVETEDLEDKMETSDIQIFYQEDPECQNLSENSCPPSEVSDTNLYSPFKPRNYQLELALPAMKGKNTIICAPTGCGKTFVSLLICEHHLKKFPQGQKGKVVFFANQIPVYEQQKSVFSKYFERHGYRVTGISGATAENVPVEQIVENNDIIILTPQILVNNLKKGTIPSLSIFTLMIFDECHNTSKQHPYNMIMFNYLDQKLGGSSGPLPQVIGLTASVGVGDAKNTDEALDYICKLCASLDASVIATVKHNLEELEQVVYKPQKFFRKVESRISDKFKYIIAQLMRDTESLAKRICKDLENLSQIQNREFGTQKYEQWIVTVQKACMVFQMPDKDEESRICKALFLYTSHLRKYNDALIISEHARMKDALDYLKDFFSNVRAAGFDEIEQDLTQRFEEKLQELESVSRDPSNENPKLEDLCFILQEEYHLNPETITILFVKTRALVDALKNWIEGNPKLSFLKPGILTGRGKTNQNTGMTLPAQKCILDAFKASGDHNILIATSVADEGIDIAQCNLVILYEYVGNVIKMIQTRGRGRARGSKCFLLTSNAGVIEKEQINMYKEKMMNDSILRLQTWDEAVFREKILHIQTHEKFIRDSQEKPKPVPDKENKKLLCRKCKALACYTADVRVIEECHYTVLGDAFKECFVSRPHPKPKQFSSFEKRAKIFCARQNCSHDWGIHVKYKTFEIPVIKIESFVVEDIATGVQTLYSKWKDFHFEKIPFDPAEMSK

No constants are given. Whether binding was seen depends on the method and setting. In cells and extracts the contact can be indirect. Binding calls can cover weak binding; strength is not graded here.

With “Strep-tagged RIG-I stably expressed in HEK293 cells (from UniProt O95786 1-925)”, the binding entry was “binds”.

Values taken from publication PMC6907008.
